Test results from doi:10.1101/2024.07.02.601518.
No constants are given. Whether binding was seen depends on the method and setting. In cells and extracts the contact can be indirect. Here binding means that the protein was enriched with, or labelled near, the bait; the list need not be complete.

Amino acid sequences for entries named in this document (tags omitted).
UniProt Q16665: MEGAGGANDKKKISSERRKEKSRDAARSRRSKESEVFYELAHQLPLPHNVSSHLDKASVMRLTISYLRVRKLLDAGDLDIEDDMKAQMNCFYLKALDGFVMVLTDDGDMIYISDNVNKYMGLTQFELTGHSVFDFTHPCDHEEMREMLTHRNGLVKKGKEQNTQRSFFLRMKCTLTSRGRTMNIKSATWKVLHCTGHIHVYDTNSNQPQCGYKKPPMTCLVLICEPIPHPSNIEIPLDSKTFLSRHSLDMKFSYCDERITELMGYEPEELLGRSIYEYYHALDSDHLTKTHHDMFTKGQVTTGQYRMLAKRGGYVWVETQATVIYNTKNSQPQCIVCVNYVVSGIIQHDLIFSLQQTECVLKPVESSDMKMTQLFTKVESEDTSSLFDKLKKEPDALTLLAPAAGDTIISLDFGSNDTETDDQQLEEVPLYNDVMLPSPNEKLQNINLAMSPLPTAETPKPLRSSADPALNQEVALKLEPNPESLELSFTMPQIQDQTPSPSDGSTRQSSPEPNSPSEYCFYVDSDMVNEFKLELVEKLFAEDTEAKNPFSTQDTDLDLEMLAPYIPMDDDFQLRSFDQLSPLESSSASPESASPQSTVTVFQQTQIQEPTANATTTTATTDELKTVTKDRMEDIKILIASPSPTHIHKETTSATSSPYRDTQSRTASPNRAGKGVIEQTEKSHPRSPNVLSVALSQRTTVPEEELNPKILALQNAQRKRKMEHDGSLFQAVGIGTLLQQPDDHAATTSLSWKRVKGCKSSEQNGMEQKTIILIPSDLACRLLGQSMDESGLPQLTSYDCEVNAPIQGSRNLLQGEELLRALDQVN
UniProt Q61221: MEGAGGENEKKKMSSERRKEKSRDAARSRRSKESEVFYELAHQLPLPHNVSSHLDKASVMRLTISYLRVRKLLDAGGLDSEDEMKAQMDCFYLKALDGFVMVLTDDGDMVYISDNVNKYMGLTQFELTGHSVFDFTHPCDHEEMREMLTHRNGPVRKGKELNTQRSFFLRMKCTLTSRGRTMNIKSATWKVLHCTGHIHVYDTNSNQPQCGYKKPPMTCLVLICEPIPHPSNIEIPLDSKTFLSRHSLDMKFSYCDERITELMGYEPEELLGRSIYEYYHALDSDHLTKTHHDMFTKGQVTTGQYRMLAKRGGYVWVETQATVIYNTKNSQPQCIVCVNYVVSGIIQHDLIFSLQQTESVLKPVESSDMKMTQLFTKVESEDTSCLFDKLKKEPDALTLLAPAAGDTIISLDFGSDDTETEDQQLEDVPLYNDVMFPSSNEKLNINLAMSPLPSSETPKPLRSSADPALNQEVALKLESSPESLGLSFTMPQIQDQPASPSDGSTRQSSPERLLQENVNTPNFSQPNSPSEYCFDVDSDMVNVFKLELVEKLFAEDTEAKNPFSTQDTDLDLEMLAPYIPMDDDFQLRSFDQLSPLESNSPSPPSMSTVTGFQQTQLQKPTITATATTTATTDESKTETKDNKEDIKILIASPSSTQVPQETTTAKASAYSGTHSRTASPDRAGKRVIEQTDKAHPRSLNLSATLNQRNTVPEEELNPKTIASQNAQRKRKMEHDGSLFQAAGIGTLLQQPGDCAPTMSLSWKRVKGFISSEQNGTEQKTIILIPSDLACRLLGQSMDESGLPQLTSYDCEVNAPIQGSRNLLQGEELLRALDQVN
UniProt Q80TA9: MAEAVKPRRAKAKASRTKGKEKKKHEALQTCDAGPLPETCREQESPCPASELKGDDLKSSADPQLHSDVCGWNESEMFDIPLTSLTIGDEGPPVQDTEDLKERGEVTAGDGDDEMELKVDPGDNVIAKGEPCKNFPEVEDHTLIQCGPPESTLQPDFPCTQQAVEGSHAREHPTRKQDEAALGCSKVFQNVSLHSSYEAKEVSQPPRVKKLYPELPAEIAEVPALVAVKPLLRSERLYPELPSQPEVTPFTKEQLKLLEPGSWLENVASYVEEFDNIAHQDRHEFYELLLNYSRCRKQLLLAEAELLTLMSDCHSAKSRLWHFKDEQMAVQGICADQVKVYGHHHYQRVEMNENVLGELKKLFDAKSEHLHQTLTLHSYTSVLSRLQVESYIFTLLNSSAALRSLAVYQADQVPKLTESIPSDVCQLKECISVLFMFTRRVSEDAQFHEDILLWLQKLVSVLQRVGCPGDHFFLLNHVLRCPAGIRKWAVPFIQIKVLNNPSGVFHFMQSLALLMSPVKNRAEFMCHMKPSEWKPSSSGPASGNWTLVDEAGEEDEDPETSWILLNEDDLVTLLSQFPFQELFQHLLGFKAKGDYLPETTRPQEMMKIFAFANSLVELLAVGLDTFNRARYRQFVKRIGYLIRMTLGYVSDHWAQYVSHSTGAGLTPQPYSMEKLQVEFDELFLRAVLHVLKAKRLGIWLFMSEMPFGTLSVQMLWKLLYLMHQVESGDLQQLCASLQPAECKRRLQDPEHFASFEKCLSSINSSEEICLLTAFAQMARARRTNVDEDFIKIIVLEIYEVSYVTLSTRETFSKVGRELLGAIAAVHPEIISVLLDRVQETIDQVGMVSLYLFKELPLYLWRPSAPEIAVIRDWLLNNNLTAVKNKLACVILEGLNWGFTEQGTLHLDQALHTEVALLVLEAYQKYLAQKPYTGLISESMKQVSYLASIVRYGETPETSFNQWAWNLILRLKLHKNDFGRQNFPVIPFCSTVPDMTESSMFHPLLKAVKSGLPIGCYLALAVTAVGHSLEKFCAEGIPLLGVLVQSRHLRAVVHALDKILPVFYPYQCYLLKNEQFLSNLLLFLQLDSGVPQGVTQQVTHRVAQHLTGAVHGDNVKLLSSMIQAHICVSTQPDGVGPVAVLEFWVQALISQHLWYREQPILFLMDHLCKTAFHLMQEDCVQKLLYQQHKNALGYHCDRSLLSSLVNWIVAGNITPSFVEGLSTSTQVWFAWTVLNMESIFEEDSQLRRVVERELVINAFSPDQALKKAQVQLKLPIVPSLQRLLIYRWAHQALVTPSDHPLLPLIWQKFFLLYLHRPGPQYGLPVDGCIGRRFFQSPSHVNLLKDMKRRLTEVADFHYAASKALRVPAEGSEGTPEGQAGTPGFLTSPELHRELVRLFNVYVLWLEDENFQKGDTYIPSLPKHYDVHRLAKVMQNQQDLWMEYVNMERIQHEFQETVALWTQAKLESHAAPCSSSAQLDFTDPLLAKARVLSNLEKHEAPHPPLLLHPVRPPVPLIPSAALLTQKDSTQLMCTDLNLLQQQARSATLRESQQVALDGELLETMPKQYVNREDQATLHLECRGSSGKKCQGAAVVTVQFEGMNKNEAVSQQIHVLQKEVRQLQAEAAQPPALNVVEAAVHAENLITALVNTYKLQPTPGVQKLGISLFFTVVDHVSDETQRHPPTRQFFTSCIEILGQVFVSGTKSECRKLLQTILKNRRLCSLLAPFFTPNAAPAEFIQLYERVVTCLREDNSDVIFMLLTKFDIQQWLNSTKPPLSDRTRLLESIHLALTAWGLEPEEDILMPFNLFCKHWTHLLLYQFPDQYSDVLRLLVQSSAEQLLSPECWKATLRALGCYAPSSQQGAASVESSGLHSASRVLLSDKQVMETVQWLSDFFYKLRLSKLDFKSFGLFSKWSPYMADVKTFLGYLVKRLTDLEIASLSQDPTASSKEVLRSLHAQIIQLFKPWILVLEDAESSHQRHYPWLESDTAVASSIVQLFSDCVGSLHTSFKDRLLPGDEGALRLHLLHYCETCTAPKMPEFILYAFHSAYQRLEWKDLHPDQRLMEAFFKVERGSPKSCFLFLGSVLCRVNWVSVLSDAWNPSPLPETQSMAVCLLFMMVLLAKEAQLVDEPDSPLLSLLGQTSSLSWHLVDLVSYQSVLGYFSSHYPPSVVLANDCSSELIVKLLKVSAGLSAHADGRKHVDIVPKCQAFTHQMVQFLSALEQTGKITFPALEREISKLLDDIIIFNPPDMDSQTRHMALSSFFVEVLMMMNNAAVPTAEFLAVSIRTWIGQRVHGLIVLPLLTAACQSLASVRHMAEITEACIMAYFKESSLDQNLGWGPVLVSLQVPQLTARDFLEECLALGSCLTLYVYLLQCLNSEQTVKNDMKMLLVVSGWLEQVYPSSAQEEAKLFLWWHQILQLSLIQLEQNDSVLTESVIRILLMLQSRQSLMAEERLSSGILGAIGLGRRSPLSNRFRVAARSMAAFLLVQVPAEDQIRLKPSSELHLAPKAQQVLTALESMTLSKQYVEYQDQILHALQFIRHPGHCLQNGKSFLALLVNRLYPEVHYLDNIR
UniProt Q60749: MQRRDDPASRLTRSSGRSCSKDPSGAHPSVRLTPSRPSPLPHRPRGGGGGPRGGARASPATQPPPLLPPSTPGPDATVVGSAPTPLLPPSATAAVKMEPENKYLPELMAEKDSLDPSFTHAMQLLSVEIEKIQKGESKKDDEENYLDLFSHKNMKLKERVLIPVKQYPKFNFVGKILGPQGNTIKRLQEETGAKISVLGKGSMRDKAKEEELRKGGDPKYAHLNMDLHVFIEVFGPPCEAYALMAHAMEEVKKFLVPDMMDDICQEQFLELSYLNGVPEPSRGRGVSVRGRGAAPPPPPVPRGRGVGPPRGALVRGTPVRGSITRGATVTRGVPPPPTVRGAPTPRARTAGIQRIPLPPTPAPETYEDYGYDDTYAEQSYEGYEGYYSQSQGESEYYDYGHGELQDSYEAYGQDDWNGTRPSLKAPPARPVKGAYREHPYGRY
UniProt Q8CFH6: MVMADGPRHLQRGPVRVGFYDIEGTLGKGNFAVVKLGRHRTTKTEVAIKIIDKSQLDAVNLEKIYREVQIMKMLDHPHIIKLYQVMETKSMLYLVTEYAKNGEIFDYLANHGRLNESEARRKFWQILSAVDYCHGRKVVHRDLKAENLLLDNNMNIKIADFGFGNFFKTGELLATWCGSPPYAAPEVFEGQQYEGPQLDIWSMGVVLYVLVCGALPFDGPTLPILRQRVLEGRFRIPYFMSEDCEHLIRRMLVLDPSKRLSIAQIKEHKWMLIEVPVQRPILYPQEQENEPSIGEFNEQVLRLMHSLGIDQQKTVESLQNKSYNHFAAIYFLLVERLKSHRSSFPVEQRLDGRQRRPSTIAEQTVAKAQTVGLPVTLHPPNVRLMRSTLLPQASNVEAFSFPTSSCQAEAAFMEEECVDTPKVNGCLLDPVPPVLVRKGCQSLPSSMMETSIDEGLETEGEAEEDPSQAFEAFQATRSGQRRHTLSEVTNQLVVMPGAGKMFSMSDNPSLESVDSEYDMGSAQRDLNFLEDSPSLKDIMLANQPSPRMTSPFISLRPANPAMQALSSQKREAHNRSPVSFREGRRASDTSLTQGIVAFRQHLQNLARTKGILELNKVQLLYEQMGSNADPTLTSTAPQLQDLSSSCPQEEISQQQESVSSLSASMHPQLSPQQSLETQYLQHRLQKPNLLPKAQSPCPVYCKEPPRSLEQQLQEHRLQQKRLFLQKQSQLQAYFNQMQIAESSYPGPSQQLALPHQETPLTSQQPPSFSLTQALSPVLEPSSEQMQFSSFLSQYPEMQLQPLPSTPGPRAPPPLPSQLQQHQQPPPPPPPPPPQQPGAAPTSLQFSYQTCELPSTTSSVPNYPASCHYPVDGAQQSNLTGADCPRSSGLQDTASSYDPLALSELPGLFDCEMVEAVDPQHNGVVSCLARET
UniProt Q921F2: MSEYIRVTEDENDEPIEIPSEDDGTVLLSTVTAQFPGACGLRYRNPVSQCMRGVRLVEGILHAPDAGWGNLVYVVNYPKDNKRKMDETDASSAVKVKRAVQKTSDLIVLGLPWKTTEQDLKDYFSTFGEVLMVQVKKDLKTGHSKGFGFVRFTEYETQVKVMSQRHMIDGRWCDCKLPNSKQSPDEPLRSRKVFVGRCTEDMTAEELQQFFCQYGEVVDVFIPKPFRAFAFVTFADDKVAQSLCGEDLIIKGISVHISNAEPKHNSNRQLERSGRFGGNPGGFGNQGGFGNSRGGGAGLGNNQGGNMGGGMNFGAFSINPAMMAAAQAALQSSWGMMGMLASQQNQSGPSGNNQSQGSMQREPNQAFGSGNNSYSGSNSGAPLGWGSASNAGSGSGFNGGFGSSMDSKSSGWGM

target: Hypoxia-inducible factor 1-alpha (HIF-1α), human (human (endogenous in UT7/TPO)) (UniProt Q16665); test: affinity purification with mass spectrometry

Row | binding | Molecule
1 | binds | GOLGA3, human (protein, UniProt Q08378 1-1498) MDGASAEQDGLQEDRSHSGPSSLPEAPLKPPGPLVPPDQQDKVQCAEVNRASTEGESPDGPGQGGLCQNGPTPPFPDPPSSLDPTTSPVGPDASPGVAGFHDNLRKSQGTSAEGSVRKEALQSLRLSLPMQETQLCSTDSPLPLEKEEQVRLQARKWLEEQLKQYRVKRQQERSSQPATKTRLFSTLDPELMLNPENLPRASTLAMTKEYSFLRTSVPRGPKVGSLGLPAHPREKKTSKSSKIRSLADYRTEDSNAGNSGGNVPAPDSTKGSLKQNRSSAASVVSEISLSPDTDDRLENTSLAGDSVSEVDGNDSDSSSYSSASTRGTYGILSKTVGTQDTPYMVNGQEIPADTLGQFPSIKDVLQAAAAEHQDQGQEVNGEVRSRRDSICSSVSLESSAAETQEEMLQVLKEKMRLEGQLEALSLEASQALKEKAELQAQLAALSTKLQAQVECSHSSQQRQDSLSSEVDTLKQSCWDLERAMTDLQNMLEAKNASLASSNNDLQVAEEQYQRLMAKVEDMQRSMLSKDNTVHDLRQQMTALQSQLQQVQLERTTLTSKLKASQAEISSLQSVRQWYQQQLALAQEARVRLQGEMAHIQVGQMTQAGLLEHLKLENVSLSQQLTETQHRSMKEKGRIAAQLQGIEADMLDQEAAFMQIQEAKTMVEEDLQRRLEEFEGERERLQRMADSAASLEQQLEQVKLTLLQRDQQLEALQQEHLDLMKQLTLTQEALQSREQSLDALQTHYDELQARLGELQGEAASREDTICLLQNEKIILEAALQAAKSGKEELDRGARRLEEGTEETSETLEKLREELAIKSGQVEHLQQETAALKKQMQKIKEQFLQQKVMVEAYRRDATSKDQLISELKATRKRLDSELKELRQELMQVHGEKRTAEAELSRLHREVAQVRQHMADLEGHLQSAQKERDEMETHLQSLQFDKEQMVAVTEANEALKKQIEELQQEARKAITEQKQKMRRLGSDLTSAQKEMKTKHKAYENAVGILSRRLQEALAAKEAADAELGQLRAQGGSSDSSLALHERIQALEAELQAVSHSKTLLEKELQEVIALTSQELEESREKVLELEDELQESRGFRKKIKRLEESNKKLALELEHEKGKLTGLGQSNAALREHNSILETALAKREADLVQLNLQVQAVLQRKEEEDRQMKHLVQALQASLEKEKEKVNSLKEQVAAAKVEAGHNRRHFKAASLELSEVKKELQAKEHLVQKLQAEADDLQIREGKHSQEIAQFQAELAEARAQLQLLQKQLDEQLSKQPVGNQEMENLKWEVDQKEREIQSLKQQLDLTEQQGRKELEGLQQLLQNVKSELEMAQEDLSMTQKDKFMLQAKVSELKNNMKTLLQQNQQLKLDLRRGAAKTRKEPKGEASSSNPATPIKIPDCPVPASLLEELLRPPPAVSKEPLKNLNSCLQQLKQEMDSLQRQMEEHALTVHESLSSWTPLEPATASPVPPGGHAGPRGDPQRHSQSRASKEGPGE

target: Hypoxia-inducible factor 1-alpha (HIF-1α), mouse (mouse (endogenous in BaF3)) (UniProt Q61221); test: affinity purification with mass spectrometry

Row | binding | Molecule
2 | binds | Golga3, mouse (protein, UniProt P55937 1-1487) MDGASAKQDGLWESKSSSDVSSCPEASLETVGSLARLPDQQDTAQDASVEVNRGFKEEGSPDRSSQVAICQNGQIPDLQLSLDPTTSPVGPDASTGVDGFHDNLRNSQGTSAEGSVRKEALQSLRLSLPMQETQLCSTASSLPLEKEEQVRLQARKRLEEQLMQYRVKRHRERSSQPATKMKLFSTLDPELMLNPENLPRASTVAVTKEYSFLRTSVPRGPKVGSLGLLAHSKEKKNSKSSKIRSLADYRTEDPSDSGGLGSTADAVGSSLKQSRSSTSVVSEVSPSSETDNRVESASMTGDSVSEADGNESDSSSHSSLSARGACGVLGNVGMPGTAYMVDGQEISAEALGQFPSIKDVLQAAAAQHQDQNQEANGEVRSRRDSICSSVSMESSLAEPQDELLQILKDKRRLEGQVEALSLEASQALQEKAELQAQLAALSTRLQAQVEHSHSSQQKQDSLSSEVDTLKQSCWDLGRAMTDLQSMLEAKNASLASSNNDLQVAEEQYQRLMAKVEDMQRNILSKDNTVHDLRQQMTALQSQLQQVQLERTTLTSKLQASQAEITSLQHARQWYQQQLTLAQEARVRLQGEMAHIQVGQMTQAGLLEHLKLENVSLSHQLTETQHRSIKEKERIAVQLQSIEADMLDQEAAFVQIREAKTMVEEDLQRRLEEFEGEREQLQKVADAAASLEQQLEQVKLTLFQRDQQLAALQQEHLDVIKQLTSTQEALQAKGQSLDDLHTRYDELQARLEELQREADSREDAIHFLQNEKIVLEVALQSAKSDKEELDRGARRLEEDTEETSGLLEQLRQDLAVKSNQVEHLQQETATLRKQMQKVKEQFVQQKVMVEAYRRDATSKDQLINELKATKKRLDSEMKELRQELIKLQGEKKTVEVEHSRLQKDMSLVHQQMAELEGHLQSVQKERDEMEIHLQSLKFDKEQMIALTEANETLKKQIEELQQEAKKAITEQKQKMKRLGSDLTSAQKEMKTKHKAYENAVSILSRRLQEALASKEATDAELNQLRAQSTGGSSDPVLHEKIRALEVELQNVGQSKILLEKELQEVITMTSQELEESREKVLELEDELQESRGFRRKIKRLEESNKKLALELEHERGKLTGLGQSNAALREHNSILETALAKREADLVQLNLQVQAVLQRKEEEDRQMKQLVQALQVSLEKEKMEVNSLKEQMAAARIEAGHNRRHFKAATLELSEVKKELQAKEHLVQTLQAEVDELQIQDGKHSQEIAQFQTELAEARTQLQLLQKKLDEQMSQQPTGSQEMEDLKWELDQKEREIQSLKQQLDLTEQQGKKELEGTQQTLQTIKSELEMVQEDLSETQKDKFMLQAKVSELKNNMKTLLQQNQQLKLDLRRGAAKKKEPKGESNSSSPATPIKIPDCPVPASLLEELLRPPPAVSKEPLKNLNNCLQQLKQEMDSLQRQMEEHTITVHESLSSWAQVEAAPAEHAHPRGDTKLHNQNSVPRDGLGQ
3 | binds | Fbl, mouse (protein, UniProt P35550 1-327) MKPGFSPRGGGFGGRGGFGDRGGRGGGRGGRGGFGGGRGGFGGGGRGRGGGGGGFRGRGGGGGRGGGFQSGGNRGRGGGRGGKRGNQSGKNVMVEPHRHEGVFICRGKEDALVTKNLVPGESVYGEKRVSISEGDDKIEYRAWNPFRSKLAAAILGGVDQIHIKPGAKVLYLGAASGTTVSHVSDIVGPDGLVYAVEFSHRSGRDLINLAKKRTNIIPVIEDARHPHKYRMLIAMVDVIFADVAQPDQTRIVALNAHTFLRNGGHFVISIKANCIDSTASAEAVFASEVKKMQQENMKPQEQLTLEPYERDHAVVVGVYRPPPKVKN
4 | binds | centrosomal protein Cep63, mouse (protein, UniProt Q3UPP8 1-700) MEALLEGIQNRGHSGGFLTSCEAELQELMKQIDIMVAHKKSEWEGQTHALETCLDIRDRELKALRSQLDMKHKEVGILHQQIEEHEKTKQEMAMEYKEELLKLQEELSRLKRSYEKLQKKQLREFRGNTKSFREDRSEIERLTGKIEEFRQKSLDWEKQRLIYQQQVSSLEAQRKALAEQSEIIQAQLANRKQKLESVELSSQSEIQHLNSKLERAKDTICANELEIERLNIRVNDLMGTNMTILQDHRQKEEKLRESEKLLEALQEEQKELKASLQSQETFILEAKMQEKLQTTLKAVGTQQSVERPLEDCQKERKYSSPGQGVLDNVLSQLDFSHSSEELLQAEVTRLEGSLESVSATCKQLSQELMEKYEELKRMEGHNNEYRTEIKKLKEQILQADQTYSSALEGMKMEISQLTRELHQRDITIASAKCSSSDMEKQLKAEMQKAEEKAVEHKEILSQLESLKLENHRLSETVMKLELGLHEAKEISLADLQENYIEALNKLVSENQQLQKDLMSTKSELEHATNMCKKKDGEIFNPAHSRAAGFKNAELKPIHGQHRHDGIKTEQYKTGHHSPRGQTLDSIDPVARGPSPLSSHISPGSSTVSLPSNFLFEAHSLPSVLDINDVNFSDSLSDCMNDQEEFVSSGSLPTSPLGSIATRFLEEEELRSHHILERLDAHIEELKRESEKTVRQFTALV

target: Hypoxia-inducible factor 1-alpha (HIF-1α), mouse (mouse (endogenous in BaF3)) (UniProt Q61221); test: affinity purification with mass spectrometry; remark: another data set of the same source

Row | binding | Molecule
5 | binds | Epg5, mouse (from UniProt Q80TA9 1-2572)
6 | binds | KHDRBS1/Sam68, mouse (from UniProt Q60749 1-443)
7 | binds | SIK2, mouse (from UniProt Q8CFH6 1-931)
8 | binds | TDP-43, mouse (from UniProt Q921F2 1-414)
9 | binds | Znf638, mouse (from UniProt Q61464 1-1960)
